Drawing on PubChem BioAssay AID328 (DTP/NCI, 2004), this text covers T/C and survivor count for 27 compounds.

The list is a part of this screen's results and no random one: it is rich in T/C values a quarter to a half above the control, in often repeated tests (any T/C) and in doses without a T/C. Further doses and runs are listed elsewhere. T/C gives the treated animals as a percentage of the vehicle group. Some entries give survivors of the animals treated and no T/C: the source holds a T/C of zero for them, seemingly a mark for toxic or unscored doses. Some survivor counts are full or nearly so, which does not show that the dose was tolerated: the source hardly ever lists a survival T/C far under the control, and the zero likely stands for such cases as well. Counts of survivors are from the toxicity check (mostly the fifth day) where no day follows; animals may have died later. Schedule codes are those of the source, read here as Q, the interval in days (D) or hours (H), X, the number of doses. Some molecules as drawn cover several salts, stereoisomers or complexes of the source; a dose is that of the sample tested. Some entries were tested several times; the values are given in rising order. For survival time, the PubChem record calls one and a half times the control and up active, and a quarter to a half above the control has no call in these data; cut-offs in other NCI protocols can differ. Some T/C values carry the count of animals alive at the toxicity check (mostly the fifth day); where none is given, no animal had died by that day.

The assay has as its system BDF1 mice, P388 leukemia ip, median survival T/C. As to the kind of experiment: NCI In Vivo Anticancer Drug Screen. Data for tumor model P388 Leukemia (intraperitoneal) in B6D2F1 (BDF1) mice. The note with it: T/C endpoint: median survival time, higher T/C = longer survival. In outline:
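Each value expresses how treatment altered survival: treated-mouse outcome over vehicle-mouse outcome, both groups bearing the transplanted tumour.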

[1] abbreviates: dose: 100.0 mg/kg/injection, schedule: Q01DX009 (ip), vehicle: saline.
The mark [2] stands for this setting: dose: 25.0 mg/kg/injection, schedule: Q01DX009 (ip), vehicle: saline with Tween-80.
The mark [3] stands for this setting: dose: 400.0 mg/kg/injection, schedule: Q01DX009 (ip), vehicle: saline with Tween-80.
Setting [4] is: dose: 200.0 mg/kg/injection, schedule: Q01DX009 (ip), vehicle: other.
Setting [5] is: dose: 200.0 mg/kg/injection, schedule: Q01DX009 (ip), vehicle: saline with Tween-80.
Where [6] appears, read: dose: 200.0 mg/kg/injection, schedule: Q04DX003 (ip), vehicle: saline with Tween-80.

In the case of `COc1cc(N(CCCl)CCCl)ccc1/C=N\NC(=O)c1cccnc1`, the T/C (dose: 200.0 mg/kg/injection, schedule: Q01DX009 (ip), vehicle: Klucel (hydroxypropylcellulose) (HPC)) is 140 % of control.

`Cc1c(C(=O)CCl)c(=O)n(-c2ccccc2)n1C`: the survivor count is, setting by setting: (dose: 200.0 mg/kg/injection, schedule: Q04DX003 (ip), vehicle: Klucel (hydroxypropylcellulose) (HPC)) 4 of 6; (dose: 400.0 mg/kg/injection, schedule: Q04DX003 (ip), vehicle: Klucel (hydroxypropylcellulose) (HPC)) 0 of 6.

In the case of `CCNC(=NC)c1ccc(NC(=O)c2ccc(C(=O)Nc3ccc(C(=NC)NCC)cc3)cc2)cc1`, the T/C (dose: 2.7 mg/kg/injection, schedule: Q01DX009 (ip), vehicle: saline with Tween-80) is 140 % of control.

Consider `CCCCCCCCCCCCCCCCCC[N+](C)(C)C`, for which the T/C (dose: 4.12 mg/kg/injection, schedule: Q01DX009 (ip), vehicle: saline) is 145 % of control [5 of 6 alive]. For the same compound, the survivor count (dose: 6.25 mg/kg/injection, schedule: Q01DX009 (ip), vehicle: saline) was 4 of 6; the survivor count (dose: 9.37 mg/kg/injection, schedule: Q01DX009 (ip), vehicle: saline) is 3 of 6 and 5 of 6; the survivor count (dose: 29.0 mg/kg/injection, schedule: Q04DX003 (ip), vehicle: saline) was 4 of 6; the survivor count (dose: 45.0 mg/kg/injection, schedule: Q04DX003 (ip), vehicle: saline) is recorded as 3 of 6; the survivor count (dose: 65.0 mg/kg/injection, schedule: Q04DX003 (ip), vehicle: saline) is listed as 2 of 6.

Consider `Cc1ccc(NC(=S)C#N)cc1Cl`, for which the survivor count (dose: 50.0 mg/kg/injection, schedule: Q01DX005 (ip), vehicle: saline with Tween-80) is given as 3 of 5; the survivor count (dose: 100.0 mg/kg/injection, schedule: Q01DX005 (ip), vehicle: saline with Tween-80) is 0 of 5; the survivor count (dose: 200.0 mg/kg/injection, schedule: Q01DX005 (ip), vehicle: saline with Tween-80) is given as 0 of 5.

For `Cn1cnc([N+](=O)[O-])c1[Se]c1ncnc2c1c(C#N)cn2C1OC(CO)C(O)C1O` (configuration not stated), under “dose: 50.0 mg/kg/injection, schedule: Q04DX003 (ip), vehicle: saline”, the T/C was 130 % of control.

Take `CC(C)C(=O)[O][Sn]([CH3])([CH3])[CH3]`: the survivor count (dose: 3.0 mg/kg/injection, schedule: Q01DX009 (ip), vehicle: saline) is reported as 1 of 6.

Take `S=C1SCCS1`: the survivor count (dose: 200.0 mg/kg/injection, schedule: Q04DX003 (ip), vehicle: saline) was 6 of 6 and the survivor count (dose: 400.0 mg/kg/injection, schedule: Q04DX003 (ip), vehicle: saline) is on record as 6 of 6.

`COC1/C=C/OC2(C)Oc3c(C)c(O)c4c(O)c(c(/C=N/N5CCN(Cc6ccccc6)CC5)c(O)c4c3C2=O)NC(=O)C(C)=C/C=C/C(C)C(O)C(C)C(O)C(C)C(OC(C)=O)C1C` (configuration not stated): under setting [1], the survivor count was 5 of 6.

With `O=C(O)C(O)C(O)C(=O)O.O=C(O)C(O)C(O)C(=O)O.[O]=[V].[O]=[V]` (configuration not stated), where the note is “dose: 12.5 mg/kg/injection, schedule: Q01DX009 (ip), vehicle: saline”, the survivor count is 6 of 6.

In the case of `NC(=O)NN=C1CSSC1`, under setting [2], the survivor count is 0 of 6.

Consider `Cc1cc(C)c(C)c(C(O)(C(=O)O)c2ccccc2)c1` (configuration not stated), for which the survivor count under setting [3] is 3 of 6.

For the compound `O=C(O)CCC(=O)O`, the T/C is, setting by setting: (dose: 40.0 mg/kg/injection, schedule: Q01DX009 (ip), vehicle: saline) 144 % of control; under setting [1], 128 % of control. In addition, the survivor count is 4 of 6 under setting [4]; 0 of 6 and 3 of 6 (dose: 400.0 mg/kg/injection, schedule: Q01DX009 (ip), vehicle: other); 0 of 6 and 4 of 6 (dose: 400.0 mg/kg/injection, schedule: Q01DX009 (ip), vehicle: saline).

With `CNc1cccnc1/C=N/NC(N)=S`, under setting [5], the T/C was 133 % of control. For the same compound, the survivor count under setting [3] is given as 4 of 6.

On to `COc1cc2cc(c1Cl)N(C)C(=O)CC(OC(=O)C(C)N(C)C(=O)C(C)C)C1(C)OC1C(C)C1CC(O)(NC(=O)O1)C(OC)/C=C/C=C(C)C2` (configuration not stated), for which the T/C was 125 % of control [5 of 6 alive] (dose: 0.1 micrograms/kg/injection, schedule: Q01DX009 (ip), vehicle: saline + alcohol) and 145 % of control (dose: 3.1 micrograms/kg/injection, schedule: Q01DX009 (ip), vehicle: saline + alcohol). Further, the survivor count by setting is: (dose: 25.0 micrograms/kg/injection, schedule: Q01DX009 (ip), vehicle: saline + alcohol) 6 of 6; (dose: 50.0 micrograms/kg/injection, schedule: Q01DX009 (ip), vehicle: saline + alcohol) 1 of 6.

As for `c1ccc(CCN2CCC(CCc3c[nH]c4ccccc34)CC2)cc1`, the T/C (dose: 100.0 mg/kg/injection, schedule: Q01DX010 (ip), vehicle: saline) was 127 % of control. Further, where the note is “dose: 200.0 mg/kg/injection, schedule: Q01DX010 (ip), vehicle: saline”, the survivor count is reported as 3 of 7.

Take `COc1cc2c(c3c1c(=O)c1cc(OC(C)=O)ccc1n3C)C=CC(C)(C)O2`: the survivor count (dose: 5.0 mg/kg/injection, schedule: Q01DX009 (ip), vehicle: Klucel (hydroxypropylcellulose) (HPC)) was 3 of 6.

`CCCCCCCCCCCCCC(C)NCc1ccccc1` (configuration not stated): the survivor count is 6 of 6 under setting [2] and 3 of 6 (dose: 50.0 mg/kg/injection, schedule: Q01DX009 (ip), vehicle: saline with Tween-80).

In the case of `CCSC(C(O)C(O)C(O)C(O)CO)n1ccc(=O)[nH]c1=O` (configuration not stated), the survivor count reads like this: (dose: 100.0 mg/kg/injection, schedule: Q01DX001 (ip), vehicle: saline) 6 of 6; (dose: 200.0 mg/kg/injection, schedule: Q01DX001 (ip), vehicle: saline) 6 of 6; (dose: 400.0 mg/kg/injection, schedule: Q01DX001 (ip), vehicle: saline) 6 of 6.

Take `CCOC(=O)C(C(C)=O)C(=O)OCC`: the survivor count under setting [4] is listed as 6 of 6.

Turning to `O=C(COc1ccc([N+](=O)[O-])cc1)Nc1cccnc1`, the survivor count under setting [6] is recorded as 6 of 6.

For `C=C1C(=O)OC(C)(C)C1(C)C`, the survivor count runs as follows: under setting [1], 3 of 6; (dose: 200.0 mg/kg/injection, schedule: Q01DX009 (ip), vehicle: saline) 0 of 6.

As to `CC(=O)OC1(C)CC(C)C(=O)C(C(O)CC2CC(=O)NC(=O)C2)C1` (configuration not stated), the T/C reads like this: (dose: 0.13 mg/kg/injection, schedule: Q01DX010 (ip), vehicle: water) 127 % of control; (dose: 1.17 mg/kg/injection, schedule: Q04DX003 (ip), vehicle: saline) 125 % of control; (dose: 1.94 mg/kg/injection, schedule: Q04DX003 (ip), vehicle: saline) 132 % of control; (dose: 3.24 mg/kg/injection, schedule: Q04DX003 (ip), vehicle: saline) 127 % of control. The survivor count reads like this: (dose: 10.0 mg/kg/injection, schedule: Q01DX001 (sc), vehicle: saline) 5 of 8; (dose: 16.7 mg/kg/injection, schedule: Q01DX001 (sc), vehicle: saline) 3 of 8; (dose: 6000.0 micrograms/kg/injection, schedule: Q04DX003 (sc), vehicle: saline) 7 of 8.

For `NOCc1csc(N)n1`, the survivor count (dose: 150.0 mg/kg/injection, schedule: Q04DX003 (ip), vehicle: saline) is reported as 6 of 6.

As for `C[NH-].C[NH-].[I][Pt+2][I]`, the T/C reads like this: (dose: 6.25 mg/kg/injection, schedule: Q04DX003 (ip), vehicle: other) 137 % of control; (dose: 25.0 mg/kg/injection, schedule: Q04DX003 (ip), vehicle: other) 136 and 137 % of control.

Take `O=[N+]([O-])c1ccc(N2CCCC(n3cccc3)C2)c([N+](=O)[O-])c1` (configuration not stated): under setting [5], the survivor count is listed as 2 of 6.

`COc1cc(/C=C(/C)[N+](=O)[O-])cc(Br)c1OC`: the survivor count is on record as 5 of 6 under setting [6] and 2 of 6 (dose: 400.0 mg/kg/injection, schedule: Q04DX003 (ip), vehicle: saline with Tween-80).
